{"source": "paper PMC11606419", "key": {"[1]": {"molecular_target": "Tn1a (Tiller number 1a) in pBT3-N, bait of the membrane yeast two-hybrid (rice (Oryza sativa L.))", "assay": "two-hybrid; membrane system yeast two-hybrid; yeast NYM51 co-transformed with pPR3-N-OsCCC1 and pBT3-N-Tn1a; growth on -His/-Ade/-Leu/-Trp medium for 2-3 days, also with X-β-gal"}, "[2]": {"molecular_target": "Tn1a-GFP (rice (Oryza sativa L.))", "assay": "co-IP; Tn1a-GFP and OsCCC1-Myc co-transformed into wild-type rice protoplasts, 15 h in the dark; IP buffer 50 mM Tris-HCl pH 7.5, 150 mM NaCl, 0.2% NP-40, 5 mM DTT; GFP beads 2 h; blot with anti-MYC"}, "[3]": {"molecular_target": "Tn1a-cYFP (rice (Oryza sativa L.), Nipponbare)", "assay": "split reporter; BiFC in rice protoplasts; nYFP and cYFP fusions co-transfected; YFP read by confocal microscopy"}, "[4]": {"molecular_target": "Tn1a-nYFP (rice (Oryza sativa L.), Nipponbare)", "assay": "split reporter; BiFC in rice protoplasts; nYFP and cYFP fusions co-transfected; YFP read by confocal microscopy"}}, "note": "Results are given in words; binding and its absence hold for the method and conditions named. Binding calls can cover weak binding; strength is not graded here. For some of these results: Binding seen in cells or lysates may run through a third protein. For some of these results: Where a sequence is shown, tags or fusion partners need not be part of it."}
{"binder": "OsCCC1 (cation-chloride cotransporter 1) in pPR3-N, prey of the membrane yeast two-hybrid (protein, UniProt Q6Z0E2 1-989) MENGEIEGAADDGVPVPAPPNGRRYRPVGSSDRAVIQMTSMEPGSSSSTAVAAVSGITPQPPRNLTVDPSMQEDHTVSQGDSKLELFGFDSLVNILGLKSMTGEQIQAPSSPRDGEDVAITIGRPKETGPKFGTMMGVFVPCLQNILGIIYYIRFTWIVGMAGVWQSLVLVSFCGACTFLTGISLSAIATNGAMKGGGPYYLIGRALGPEVGVSIGLCFFLGNAVAGSMYVLGAVETFLDAVPSAGFFKESVTVVNNTLVNGTATASTATISTPSLHDLQVYGVIVTILLCFIVFGGVKIINKVAPAFLIPVLFSLLCIYLGVFIAPRHNAPKGITGLSITTFKDNWGSEYQRTNNAGVPDPNGSIYWDFNALVGLFFPAVTGIMAGSNRSASLKDTQRSIPIGTLSATLTTTAMYLFSVLLFGALATREELLTDRLLTATVAWPAPAVIYIGIILSTLGAALQSLTGAPRLLAAIANDDILPVLNYFKVSEGAEPHSATLFTAFICICCVVIGNLDLITPTITMFFLLCYAGVNLSCFLLDLLDAPSWRPRWKFHHWSLSLVGALLCVVIMFLISWSFTVVSLALASLIYYYVSLKGKAGDWGDGFKSAYFQLALRSLRSLGANQVHPKNWYPIPLIFCRPWGKLPENVPCHPKLADFANCMKKKGRGMSIFVSIIDGDYHELAEDAKTACRQLDTYIEYKRCEGVAEIIVAPSMSEGFRSIVQTMGLGNLKPNIIVMRYPEIWRRENLIQIPSTFVSIINDCIIANKAVVIVKGLDEWPNEYQRQYGTIDLYWIVRDGGLMLLLSQLLLTKETFESCKIQVFCIAEEDTDAEELKADVKKFLYDLRMHAEVIVVTMKSWEPHMESSSSGAPQDDSQEAYTSAQRRISTYLSEMKETAQREGHPLMEDGKQVVVNEQKIEKFLYTMFKLNSTILRYSRMAAVVLVSLPPPPLNHPAYFYMEYMDLLVENVPRMLIVRGYRRDVVTFFT", "values": [{"measurement": "binding", "setting": "[1]", "result": "binds"}]}
{"binder": "OsCCC1-Myc (protein, UniProt Q6Z0E2 1-989) MENGEIEGAADDGVPVPAPPNGRRYRPVGSSDRAVIQMTSMEPGSSSSTAVAAVSGITPQPPRNLTVDPSMQEDHTVSQGDSKLELFGFDSLVNILGLKSMTGEQIQAPSSPRDGEDVAITIGRPKETGPKFGTMMGVFVPCLQNILGIIYYIRFTWIVGMAGVWQSLVLVSFCGACTFLTGISLSAIATNGAMKGGGPYYLIGRALGPEVGVSIGLCFFLGNAVAGSMYVLGAVETFLDAVPSAGFFKESVTVVNNTLVNGTATASTATISTPSLHDLQVYGVIVTILLCFIVFGGVKIINKVAPAFLIPVLFSLLCIYLGVFIAPRHNAPKGITGLSITTFKDNWGSEYQRTNNAGVPDPNGSIYWDFNALVGLFFPAVTGIMAGSNRSASLKDTQRSIPIGTLSATLTTTAMYLFSVLLFGALATREELLTDRLLTATVAWPAPAVIYIGIILSTLGAALQSLTGAPRLLAAIANDDILPVLNYFKVSEGAEPHSATLFTAFICICCVVIGNLDLITPTITMFFLLCYAGVNLSCFLLDLLDAPSWRPRWKFHHWSLSLVGALLCVVIMFLISWSFTVVSLALASLIYYYVSLKGKAGDWGDGFKSAYFQLALRSLRSLGANQVHPKNWYPIPLIFCRPWGKLPENVPCHPKLADFANCMKKKGRGMSIFVSIIDGDYHELAEDAKTACRQLDTYIEYKRCEGVAEIIVAPSMSEGFRSIVQTMGLGNLKPNIIVMRYPEIWRRENLIQIPSTFVSIINDCIIANKAVVIVKGLDEWPNEYQRQYGTIDLYWIVRDGGLMLLLSQLLLTKETFESCKIQVFCIAEEDTDAEELKADVKKFLYDLRMHAEVIVVTMKSWEPHMESSSSGAPQDDSQEAYTSAQRRISTYLSEMKETAQREGHPLMEDGKQVVVNEQKIEKFLYTMFKLNSTILRYSRMAAVVLVSLPPPPLNHPAYFYMEYMDLLVENVPRMLIVRGYRRDVVTFFT", "values": [{"measurement": "binding", "setting": "[2]", "result": "binds"}]}
{"binder": "OsCCC1-nYFP (protein, UniProt Q6Z0E2 1-989) MENGEIEGAADDGVPVPAPPNGRRYRPVGSSDRAVIQMTSMEPGSSSSTAVAAVSGITPQPPRNLTVDPSMQEDHTVSQGDSKLELFGFDSLVNILGLKSMTGEQIQAPSSPRDGEDVAITIGRPKETGPKFGTMMGVFVPCLQNILGIIYYIRFTWIVGMAGVWQSLVLVSFCGACTFLTGISLSAIATNGAMKGGGPYYLIGRALGPEVGVSIGLCFFLGNAVAGSMYVLGAVETFLDAVPSAGFFKESVTVVNNTLVNGTATASTATISTPSLHDLQVYGVIVTILLCFIVFGGVKIINKVAPAFLIPVLFSLLCIYLGVFIAPRHNAPKGITGLSITTFKDNWGSEYQRTNNAGVPDPNGSIYWDFNALVGLFFPAVTGIMAGSNRSASLKDTQRSIPIGTLSATLTTTAMYLFSVLLFGALATREELLTDRLLTATVAWPAPAVIYIGIILSTLGAALQSLTGAPRLLAAIANDDILPVLNYFKVSEGAEPHSATLFTAFICICCVVIGNLDLITPTITMFFLLCYAGVNLSCFLLDLLDAPSWRPRWKFHHWSLSLVGALLCVVIMFLISWSFTVVSLALASLIYYYVSLKGKAGDWGDGFKSAYFQLALRSLRSLGANQVHPKNWYPIPLIFCRPWGKLPENVPCHPKLADFANCMKKKGRGMSIFVSIIDGDYHELAEDAKTACRQLDTYIEYKRCEGVAEIIVAPSMSEGFRSIVQTMGLGNLKPNIIVMRYPEIWRRENLIQIPSTFVSIINDCIIANKAVVIVKGLDEWPNEYQRQYGTIDLYWIVRDGGLMLLLSQLLLTKETFESCKIQVFCIAEEDTDAEELKADVKKFLYDLRMHAEVIVVTMKSWEPHMESSSSGAPQDDSQEAYTSAQRRISTYLSEMKETAQREGHPLMEDGKQVVVNEQKIEKFLYTMFKLNSTILRYSRMAAVVLVSLPPPPLNHPAYFYMEYMDLLVENVPRMLIVRGYRRDVVTFFT", "values": [{"measurement": "binding", "setting": "[3]", "result": "binds"}]}
{"binder": "OsCCC1-cYFP (protein, UniProt Q6Z0E2 1-989) MENGEIEGAADDGVPVPAPPNGRRYRPVGSSDRAVIQMTSMEPGSSSSTAVAAVSGITPQPPRNLTVDPSMQEDHTVSQGDSKLELFGFDSLVNILGLKSMTGEQIQAPSSPRDGEDVAITIGRPKETGPKFGTMMGVFVPCLQNILGIIYYIRFTWIVGMAGVWQSLVLVSFCGACTFLTGISLSAIATNGAMKGGGPYYLIGRALGPEVGVSIGLCFFLGNAVAGSMYVLGAVETFLDAVPSAGFFKESVTVVNNTLVNGTATASTATISTPSLHDLQVYGVIVTILLCFIVFGGVKIINKVAPAFLIPVLFSLLCIYLGVFIAPRHNAPKGITGLSITTFKDNWGSEYQRTNNAGVPDPNGSIYWDFNALVGLFFPAVTGIMAGSNRSASLKDTQRSIPIGTLSATLTTTAMYLFSVLLFGALATREELLTDRLLTATVAWPAPAVIYIGIILSTLGAALQSLTGAPRLLAAIANDDILPVLNYFKVSEGAEPHSATLFTAFICICCVVIGNLDLITPTITMFFLLCYAGVNLSCFLLDLLDAPSWRPRWKFHHWSLSLVGALLCVVIMFLISWSFTVVSLALASLIYYYVSLKGKAGDWGDGFKSAYFQLALRSLRSLGANQVHPKNWYPIPLIFCRPWGKLPENVPCHPKLADFANCMKKKGRGMSIFVSIIDGDYHELAEDAKTACRQLDTYIEYKRCEGVAEIIVAPSMSEGFRSIVQTMGLGNLKPNIIVMRYPEIWRRENLIQIPSTFVSIINDCIIANKAVVIVKGLDEWPNEYQRQYGTIDLYWIVRDGGLMLLLSQLLLTKETFESCKIQVFCIAEEDTDAEELKADVKKFLYDLRMHAEVIVVTMKSWEPHMESSSSGAPQDDSQEAYTSAQRRISTYLSEMKETAQREGHPLMEDGKQVVVNEQKIEKFLYTMFKLNSTILRYSRMAAVVLVSLPPPPLNHPAYFYMEYMDLLVENVPRMLIVRGYRRDVVTFFT", "values": [{"measurement": "binding", "setting": "[4]", "result": "binds"}]}
